{"source": "PubChem BioAssay AID1259425 (University of Nebraska Medical Center, 2018)", "assay": "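Compare each knockdown with KSR1 silencing using changes in marker transcripts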 (primary screen)", "cell system": "HCT116 human colon cancer cells", "reagent": "siRNA pool against human genes, 50 nM siRNA", "read-out": "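mRNA of six signature genes measured together by branched-DNA assay after 50 nM siRNA pool, blank removed, divided by geometric mean of two housekeeping genes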", "reading the numbers": "BNIP3L mRNA: higher = more BNIP3L transcript after knockdown", "note": "The deposit covers about 14,000 reagents; below is a part drawn at random. Further read-outs or replicates are left out here. Not given: the time to read-out."}
{"gene knocked down":"CDC42BPG","BNIP3L mRNA, set 1":0.329}
{"gene knocked down":"ZNFX1","BNIP3L mRNA, set 1":0.164}
{"gene knocked down":"ARMCX6","BNIP3L mRNA, set 1":0.0813}
{"gene knocked down":"CDH11","BNIP3L mRNA, set 1":0.089}
{"gene knocked down":"GNRHR2","BNIP3L mRNA, set 1":0.332}
{"gene knocked down":"TTI1","BNIP3L mRNA, set 1":0.2}
{"gene knocked down":"NXT2","BNIP3L mRNA, set 1":0.107}
{"gene knocked down":"RTKN","BNIP3L mRNA, set 1":0.137}
{"gene knocked down":"ELMO2","BNIP3L mRNA, set 1":0.0546}
{"gene knocked down":"ADGRL1","BNIP3L mRNA, set 1":0.18}
{"gene knocked down":"SLC13A4","BNIP3L mRNA, set 1":0.121}
{"gene knocked down":"ZNRD2","BNIP3L mRNA, set 1":0.123}

Entries above whose gene name begins with C or c (2):
{"gene knocked down":"CDC42BPG","BNIP3L mRNA, set 1":0.329}
{"gene knocked down":"CDH11","BNIP3L mRNA, set 1":0.089}
